Assay results: paper PMC2364652
These are yes or no findings as the source states them, for the method shown. For some assays here: In cells and extracts the contact can be indirect. Some binding calls cover weakened binding; strength is not graded here.

Amino acid sequences for entries named in this document (tags omitted). Residues count along the entry.
UniProt P07948, residues 63-123: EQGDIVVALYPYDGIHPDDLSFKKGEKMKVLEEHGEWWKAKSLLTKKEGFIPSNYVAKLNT

Legend:
[1] = molecular target: SH3 domain of Lyn (spot of the TranSignal SH3 domain array III) (human) (UniProt P07948); assay: peptide or protein array; TranSignal SH3 domain array III (34 human SH3 domains spotted in duplicate); membrane incubated with 30 µg/ml AQP5 WT overnight; detected with HRP-conjugated FLAG antibody; both purified
[2] = molecular target: GST fusion protein of the Lyn SH3 domain (human) (UniProt P07948); assay: pull-down; BEAS-2B lysate in NP-40 lysis buffer incubated with GST fusion protein at 4°C for 2 hours, glutathione-Sepharose 4B beads, immunoblot; only the target purified

- binding [1]: binds
- binding [2]: binds
Substance: full length wild-type AQP5 (aquaporin 5) (from UniProt P55064 1-265)
